No constants are given. Whether binding was seen depends on the method and setting. In cells and extracts the contact can be indirect. These calls come from enrichment with a bait or labelling near it, and not all partners need be listed. Sequences can lack the tags named with a protein.
Target: T1, RTN4IP1-V5-TurboID (human) (UniProt Q8WWV3)
T1 sequence: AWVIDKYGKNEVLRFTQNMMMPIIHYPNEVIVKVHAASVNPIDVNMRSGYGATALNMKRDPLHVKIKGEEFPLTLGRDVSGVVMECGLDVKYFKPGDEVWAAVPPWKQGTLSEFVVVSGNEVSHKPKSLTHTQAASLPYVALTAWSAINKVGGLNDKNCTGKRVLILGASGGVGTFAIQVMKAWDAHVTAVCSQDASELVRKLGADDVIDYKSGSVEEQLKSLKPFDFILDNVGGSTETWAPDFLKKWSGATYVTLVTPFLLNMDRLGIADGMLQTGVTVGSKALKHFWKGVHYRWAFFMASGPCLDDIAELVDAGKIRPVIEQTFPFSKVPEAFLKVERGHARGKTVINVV
Assay: proximity labelling

B1: COQ3 (protein, UniProt Q9NZJ6 86-369)
chain: STSQTTVDSGEVKTFLALAHKWWDEQGVYAPLHSMNDLRVPFIRDNLLKTIPNHQPGKPLLGMKILDVGCGGGLLTEPLGRLGASVIGIDPVDENIKTAQCHKSFDPVLDKRIEYRVCSLEEIVEETAETFDAVVASEVVEHVIDLETFLQCCCQVLKPGGSLFITTINKTQLSYALGIVFSEQIASIVPKGTHTWEKFVSPETLESILESNGLSVQTVVGMLYNPFSGYWHWSENTSLNYAAYAVKSRVQEHPASAEFVLKGETEELQANACTNPAVHEKLKK
modifications: biotinylated lysine residues (K + 226 Da) after TurboID labelling
- binding: binds

B2: COQ5 (protein, UniProt Q5HYK3 43-327)
chain: LSQEKRAAETHFGFETVSEEEKGGKVYQVFESVAKKYDVMNDMMSLGIHRVWKDLLLWKMHPLPGTQLLDVAGGTGDIAFRFLNYVQSQHQRKQKRQLRAQQNLSWEEIAKEYQNEEDSLGGSRVVVCDINKEMLKVGKQKALAQGYRAGLAWVLGDAEELPFDDDKFDIYTIAFGIRNVTHIDQALQEAHRVLKPGGRFLCLEFSQVNNPLISRLYDLYSFQVIPVLGEVIAGDWKSYQYLVESIRRFPSQEEFKDMIEDAGFHKVTYESLTSGIVAIHSGFKL
modifications: biotinylated lysine residues (K + 226 Da) after TurboID labelling
- binding: binds
